These are literature values, as cited in publication PMC9715504, “The blood-to-plasma ratio and predicted GABAA-binding affinity of designer benzodiazepines” (Forensic Toxicology, 2022).

Where two headings read alike, the source gives them in different places.

The conditions of this series: cited from earlier work.

With `CN1C(=O)C(O)N=C(c2ccccc2)c2cc(Cl)ccc21` (centres unmarked) [temazepam], the blood-to-plasma ratio is recorded as 0.62. Moreover, where the note is “calculated from literature whole blood and plasma concentrations (125-I radioimmunoassay)”, the blood-to-plasma ratio is 0.49.
